Experimental data reported in the supplement of paper PMC7024190.
This is one part of the list. Single values are uncertain here, since repeats match poorly.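 A first-round screen of about ten thousand compounds sought those raising reporter output, using human embryonic kidney cells briefly transfected with a plasmid carrying a Renilla luciferase gene driven by the HSV-TK promoter.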

Each compound was assayed on HEK 293FT (assay: log relative Renilla luciferase luminescence (reporter expression vs reference, reference not stated) (log (base not stated)); higher = higher recombinant reporter expression). Settings: 10 µM; time after transfection 48 h.
Method: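 HEK 293FT cells transiently transfected with pRL-TK (Renilla luciferase) were treated with compounds at 10 uM and luminescence was read about 42 h later. Values are log relative Renilla luminescence (log base and reference not stated). Single-pass screen; ICCB Known Bioactives library.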

Question: Which log does the source give for `CCCCC/C=C\C/C=C\CCCCCCCC(=O)O` [Linoleic acid] here?
Answer: The log was -0.203.

Question: For `N=C(N)NC(=O)c1nc(Cl)c(N)nc1N` [Amiloride], which log is on record?
Answer: Its log is 0.0039.

Question: Which log does the source give for `N#Cc1cc2c(OCC(O)CN3CCN(C(c4ccccc4)c4ccccc4)CC3)cccc2[nH]1` (stereo not given) here?
Answer: Its log is -0.245.

Question: `CCCCC/C=C\CC1OC1C/C=C\C/C=C\CCCC(=O)O` (stereo not given) [11,12-Epoxyeicosatrienoic acid] was tested. Which log did it give?
Answer: Its log is 0.339.

Question: With `CC1=C(/C=C/C(C)=C/C=C/C(C)=C\C(=O)O)C(C)(C)CCC1` [13-cis Retinoic acid] as the compound, how does the log read?
Answer: Its log is 0.0559.

Question: With `CNC(=O)[C@H](Cc1c[nH]c2ccccc12)NC(=O)[C@@H](CC(=O)NO)CC(C)C` as the compound, how does the log read?
Answer: Its log is 0.239.

Question: `CCCC[C@@H](C)/C=C(C)/C=C(\C)C(=O)NC1=C[C@@](O)(/C=C/C=C/C=C/C(=O)NC2=C(O)CCC2=O)[C@@H]2O[C@@H]2C1=O` [Manumycin A] was tested. Which log did it give?
Answer: Its log is 0.276.

Question: For `O=C1Nc2ccccc2/C1=C1/Nc2ccccc2C1=O` [Indirubin], which log is on record?
Answer: Its log is -0.25.

Question: With `CN(C)c1ccc(/C=C2/C(=O)Nc3ccccc32)cc1` as the compound, how does the log read?
Answer: The log was -0.479.

Question: For `CCCCC/C=C/C=C1/C(=O)C=C[C@@H]1C/C=C\CCCC(=O)O` [15d-Prostaglandin J2], which log is on record?
Answer: The log was 0.121.

Question: For `CCCCCC=CCC=CCC=CCC=CCCCCCC(=O)O` [Adrenic acid (22:4, n-6)], which log is on record?
Answer: The log was 0.00897.

Question: `C1CCCC2CCCN3CCC(CCCCCCC4CCCN5CCC(CC1)OC45)OC23` (stereo not given) [Xestospongin C] was tested. Which log did it give?
Answer: Its log is 0.0238.

Question: Which log does the source give for `Clc1cccc(Cl)c1NC1=NCCN1` [Clonidine] here?
Answer: Its log is 0.0106.

Question: `CC(C)(C)c1cc(C=C(C#N)C(N)=S)cc(C(C)(C)C)c1O` was tested. Which log did it give?
Answer: Its log is -0.675.

Question: `Cn1cnc2c(NCc3ccccc3)nc(NCCO)nc21` [Olomoucine] was tested. Which log did it give?
Answer: Its log is -0.531.

Question: For `COC(=O)[C@@H](N)CSC/C=C(\C)CC/C=C(\C)CCC=C(C)C` [S-Farnesyl-L-cysteine methyl ester], which log is on record?
Answer: Its log is 0.0907.

Question: With `O=C1NC(=O)C(c2ccccc2)(c2ccccc2)N1` [Phenytoin] as the compound, how does the log read?
Answer: Its log is 0.164.

Question: How did the log turn out when `COc1ccc2c(c1)c(CC(=O)N1CCOCC1)c(C)n2C(=O)c1ccc(Cl)cc1` was run?
Answer: The log was 0.239.

Question: `CCCC[C@@H](C=O)NC(=O)[C@H](CC(C)C)NC(=O)OCc1ccccc1` [Calpeptin] was tested. Which log did it give?
Answer: The log was -0.0949.

Question: For `CCC(C)C(COC(Cc1ccccc1)C(=O)NC(CCS(C)(=O)=O)C(=O)OC(C)C)NCC(N)CS` (stereo not given), which log is on record?
Answer: Its log is 0.325.

Question: How did the log turn out when `Cc1ccc(NC(=O)c2cccc(N(C)C)c2)cc1NC(=O)c1ccc(O)cc1` was run?
Answer: The log was -0.303.

Question: How did the log turn out when `CCCCNC(=O)NS(=O)(=O)c1ccc(C)cc1` [Tolbutamide] was run?
Answer: The log was 0.285.

Question: For `CC(C)=CCC/C(C)=C/CC/C(C)=C/CSCC(=O)O` [Farnesylthioacetic acid], which log is on record?
Answer: The log was -0.145.

Question: With `CCCCCCCCCCCCC/C=C/[C@@H](O)[C@H](CO)NC(=O)CCCCCCCCCCCCCCC` [C16 Ceramide] as the compound, how does the log read?
Answer: The log was -0.115.

Question: With `CC(=O)N[C@@H](CSC/C=C(\C)CC/C=C(\C)CCC=C(C)C)C(=O)O` [Acetyl (N)-S-farnesyl-L-cysteine] as the compound, how does the log read?
Answer: Its log is 0.0222.

Question: Which log does the source give for `CCCCCCCCCCOCCC(=O)O` [4-Oxatetradecanoic acid] here?
Answer: Its log is 0.163.

Question: Which log does the source give for `O=C(O)c1cccnc1Nc1cccc(C(F)(F)F)c1` [Niflumic acid] here?
Answer: Its log is 0.0123.

Question: Which log does the source give for `CCCCCCCCCCCCCCCCOCC(CO)OC` (stereo not given) [1-Hexadecyl-2-O-methyl-glycerol] here?
Answer: The log was 0.104.

Question: For `CCN(CC)CCNC(=O)c1ccc(N)cc1` [Procainamide], which log is on record?
Answer: The log was 0.191.

Question: Which log does the source give for `O=C(O)CCC/C=C\C[C@@H]1[C@@H](/C=C/[C@@H](O)COc2cccc(C(F)(F)F)c2)[C@H](O)C[C@@H]1O` (racemic) [Fluprostenol] here?
Answer: Its log is -0.127.

Question: With `CCCCCCCCCCCCCCCCCCOC[C@@H](COP(=O)([O-])OCC[N+](C)(C)C)OC` [1-Octadecyl-2-methylglycero-3 PC] as the compound, how does the log read?
Answer: The log was 0.0736.

Question: `COc1ccc2c(c1)CCC1C2CCC2(C)C(NCCCCCCN3C(=O)C=CC3=O)CCC12` (stereo not given) was tested. Which log did it give?
Answer: The log was -0.0494.

Question: How did the log turn out when `COc1c(C=O)c(O)cc2c1C(=O)c1ccccc1C2=O` [Damnacanthal] was run?
Answer: The log was -0.898.

Question: Which log does the source give for `CCCCC[C@H](O)/C=C/C1=C(CCCCCCC(=O)O)C(=O)CC1` [Prostaglandin B1] here?
Answer: The log was -0.00555.

Question: For `COc1ccc2c(c1)c(CC(=O)O)c(C)n2C(=O)c1ccc(Cl)cc1` [Indomethacin], which log is on record?
Answer: Its log is 0.353.

Question: Which log does the source give for `CN1CCN(C2=Nc3cc(Cl)ccc3Nc3ccccc32)CC1` [Clozapine] here?
Answer: Its log is -0.152.

Question: `COc1ccc([C@H]2Sc3ccccc3N(CCN(C)C)C(=O)[C@H]2OC(C)=O)cc1` [L-cis-Diltiazem] was tested. Which log did it give?
Answer: Its log is 0.0263.

Question: With `CCCOc1ccccc1-c1nc2[nH]nnc2c(=O)[nH]1` [Zaprinast] as the compound, how does the log read?
Answer: The log was -0.067.

Question: With `CCCCCCCCCCCCC/C=C/[C@@H](O)[C@H](CO)NCCCCCCCC` [C8 Ceramine] as the compound, how does the log read?
Answer: Its log is 0.0437.

Question: `CCCCC[C@H](O)/C=C/C=C\CCCCCCCC(=O)O` was tested. Which log did it give?
Answer: The log was -0.0475.
